Data on 1 substance can be found in article doi:10.1101/2024.02.11.579811.

The chains behind the UniProt entries cited, without tags or fusion partners.
UniProt P27695: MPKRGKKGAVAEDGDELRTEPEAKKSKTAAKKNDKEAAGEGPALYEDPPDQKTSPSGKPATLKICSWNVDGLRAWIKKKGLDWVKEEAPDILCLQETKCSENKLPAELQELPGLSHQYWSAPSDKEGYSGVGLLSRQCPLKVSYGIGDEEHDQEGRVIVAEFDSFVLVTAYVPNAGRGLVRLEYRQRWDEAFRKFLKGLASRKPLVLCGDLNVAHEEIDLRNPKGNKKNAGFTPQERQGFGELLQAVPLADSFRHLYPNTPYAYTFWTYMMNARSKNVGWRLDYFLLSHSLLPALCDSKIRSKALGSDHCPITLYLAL

In the experiment the target is Apurinic/apyrimidinic endonuclease 1 (APE1) (UniProt P27695). Briefly: atomic force microscopy.

These are yes or no findings as the source states them, for the method shown.

Regarding “Apurinic/apyrimidinic endonuclease 1 (APE1) (from UniProt P27695 1-318) (enzyme; other documents disagree on this pair)”, the binding result is “no binding (tested: 1 nM)”.
